Measurements taken from the supplement of paper PMC10849652.
This is one part of the list.

Sequences of proteins named here, by UniProt entry; tags and fusion partners are left off. A change or cut given only in a name is not applied to a line headed by its entry.
UniProt P35613: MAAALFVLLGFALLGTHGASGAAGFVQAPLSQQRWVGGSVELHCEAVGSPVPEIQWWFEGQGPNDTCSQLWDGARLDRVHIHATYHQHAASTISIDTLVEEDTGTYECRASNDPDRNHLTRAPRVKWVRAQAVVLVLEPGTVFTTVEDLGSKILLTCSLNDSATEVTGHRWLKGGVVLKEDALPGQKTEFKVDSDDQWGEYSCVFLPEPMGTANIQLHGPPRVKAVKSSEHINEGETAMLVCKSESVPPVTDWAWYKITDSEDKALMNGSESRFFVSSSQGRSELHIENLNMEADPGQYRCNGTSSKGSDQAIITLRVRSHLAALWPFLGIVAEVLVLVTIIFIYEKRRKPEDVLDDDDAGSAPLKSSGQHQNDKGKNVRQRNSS
UniProt O95873: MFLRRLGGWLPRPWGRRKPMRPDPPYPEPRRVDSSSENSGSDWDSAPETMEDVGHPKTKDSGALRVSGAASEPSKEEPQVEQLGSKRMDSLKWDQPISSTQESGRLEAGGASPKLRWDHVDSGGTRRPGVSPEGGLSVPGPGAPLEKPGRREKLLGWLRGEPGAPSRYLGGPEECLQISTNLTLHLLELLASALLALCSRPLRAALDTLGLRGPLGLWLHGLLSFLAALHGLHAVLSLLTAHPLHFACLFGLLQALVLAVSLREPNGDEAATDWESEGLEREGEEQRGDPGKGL
UniProt A6NDU8: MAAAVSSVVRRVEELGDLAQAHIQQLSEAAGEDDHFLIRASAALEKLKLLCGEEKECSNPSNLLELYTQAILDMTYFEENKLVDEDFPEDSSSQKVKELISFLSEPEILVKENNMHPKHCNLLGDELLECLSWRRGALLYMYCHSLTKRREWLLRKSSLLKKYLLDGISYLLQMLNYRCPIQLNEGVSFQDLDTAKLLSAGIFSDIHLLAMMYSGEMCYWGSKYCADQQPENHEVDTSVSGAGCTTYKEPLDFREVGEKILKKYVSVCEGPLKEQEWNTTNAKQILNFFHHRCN
UniProt Q8N5I9: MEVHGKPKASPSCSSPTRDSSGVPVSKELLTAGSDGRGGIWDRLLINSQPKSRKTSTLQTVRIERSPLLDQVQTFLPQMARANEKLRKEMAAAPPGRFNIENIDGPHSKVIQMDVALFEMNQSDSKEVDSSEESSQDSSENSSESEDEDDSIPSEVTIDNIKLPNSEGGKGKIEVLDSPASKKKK
UniProt Q8NDD1: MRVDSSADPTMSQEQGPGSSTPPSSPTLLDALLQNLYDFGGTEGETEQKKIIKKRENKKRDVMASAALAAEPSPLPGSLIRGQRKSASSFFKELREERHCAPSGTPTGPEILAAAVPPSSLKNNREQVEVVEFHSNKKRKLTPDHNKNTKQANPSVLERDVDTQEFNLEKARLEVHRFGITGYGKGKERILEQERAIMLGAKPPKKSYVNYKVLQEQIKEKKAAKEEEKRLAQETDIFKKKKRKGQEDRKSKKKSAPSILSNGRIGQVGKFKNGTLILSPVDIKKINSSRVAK
UniProt P27824: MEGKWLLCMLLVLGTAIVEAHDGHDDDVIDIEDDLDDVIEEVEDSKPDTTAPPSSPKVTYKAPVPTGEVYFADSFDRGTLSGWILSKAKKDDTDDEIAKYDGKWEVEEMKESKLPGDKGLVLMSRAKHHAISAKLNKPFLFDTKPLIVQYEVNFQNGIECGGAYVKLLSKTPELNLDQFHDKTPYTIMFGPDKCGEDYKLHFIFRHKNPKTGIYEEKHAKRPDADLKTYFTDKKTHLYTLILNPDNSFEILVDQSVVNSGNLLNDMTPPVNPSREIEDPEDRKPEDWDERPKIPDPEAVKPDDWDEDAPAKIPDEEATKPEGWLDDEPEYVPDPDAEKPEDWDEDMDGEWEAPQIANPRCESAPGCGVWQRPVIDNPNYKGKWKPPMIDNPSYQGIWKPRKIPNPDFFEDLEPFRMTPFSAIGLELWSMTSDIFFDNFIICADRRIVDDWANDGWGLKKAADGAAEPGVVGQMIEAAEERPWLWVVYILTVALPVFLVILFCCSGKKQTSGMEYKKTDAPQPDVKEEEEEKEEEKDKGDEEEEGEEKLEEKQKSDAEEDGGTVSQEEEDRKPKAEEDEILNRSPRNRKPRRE
UniProt O43709: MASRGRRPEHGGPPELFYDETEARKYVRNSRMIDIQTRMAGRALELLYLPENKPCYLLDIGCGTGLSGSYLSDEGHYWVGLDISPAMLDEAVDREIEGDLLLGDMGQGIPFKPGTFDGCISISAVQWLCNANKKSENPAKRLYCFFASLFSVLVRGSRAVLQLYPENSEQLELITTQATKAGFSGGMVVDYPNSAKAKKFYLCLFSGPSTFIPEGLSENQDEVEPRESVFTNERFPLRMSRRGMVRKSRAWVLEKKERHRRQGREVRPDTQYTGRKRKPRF
UniProt P49069: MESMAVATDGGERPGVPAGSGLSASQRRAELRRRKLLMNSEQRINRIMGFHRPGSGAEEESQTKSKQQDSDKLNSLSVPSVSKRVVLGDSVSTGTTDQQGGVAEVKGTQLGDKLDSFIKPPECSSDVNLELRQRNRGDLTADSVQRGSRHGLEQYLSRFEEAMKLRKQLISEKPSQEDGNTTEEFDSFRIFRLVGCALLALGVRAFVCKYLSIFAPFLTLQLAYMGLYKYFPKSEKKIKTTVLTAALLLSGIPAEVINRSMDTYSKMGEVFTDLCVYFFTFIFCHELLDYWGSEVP
UniProt P47756, whole entry, looked up: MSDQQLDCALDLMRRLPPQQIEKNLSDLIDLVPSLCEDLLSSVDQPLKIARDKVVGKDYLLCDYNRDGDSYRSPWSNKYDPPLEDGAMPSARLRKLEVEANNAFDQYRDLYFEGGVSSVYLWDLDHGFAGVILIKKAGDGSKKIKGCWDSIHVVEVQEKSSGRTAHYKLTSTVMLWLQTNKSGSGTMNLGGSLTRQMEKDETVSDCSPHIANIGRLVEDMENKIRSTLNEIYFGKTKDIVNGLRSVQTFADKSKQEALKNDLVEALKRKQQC
UniProt Q8WUR7: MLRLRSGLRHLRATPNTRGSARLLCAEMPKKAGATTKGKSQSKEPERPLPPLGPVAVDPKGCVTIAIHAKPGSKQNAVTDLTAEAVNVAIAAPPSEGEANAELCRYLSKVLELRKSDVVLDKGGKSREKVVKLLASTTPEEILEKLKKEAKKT
UniProt Q9H7E9: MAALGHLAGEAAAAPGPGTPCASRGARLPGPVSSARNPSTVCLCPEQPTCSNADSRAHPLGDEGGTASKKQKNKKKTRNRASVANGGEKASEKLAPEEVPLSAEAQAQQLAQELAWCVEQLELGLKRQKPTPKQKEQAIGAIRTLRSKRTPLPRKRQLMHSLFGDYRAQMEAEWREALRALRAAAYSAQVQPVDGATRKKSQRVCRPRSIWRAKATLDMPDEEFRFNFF
UniProt Q01518, whole entry, looked up: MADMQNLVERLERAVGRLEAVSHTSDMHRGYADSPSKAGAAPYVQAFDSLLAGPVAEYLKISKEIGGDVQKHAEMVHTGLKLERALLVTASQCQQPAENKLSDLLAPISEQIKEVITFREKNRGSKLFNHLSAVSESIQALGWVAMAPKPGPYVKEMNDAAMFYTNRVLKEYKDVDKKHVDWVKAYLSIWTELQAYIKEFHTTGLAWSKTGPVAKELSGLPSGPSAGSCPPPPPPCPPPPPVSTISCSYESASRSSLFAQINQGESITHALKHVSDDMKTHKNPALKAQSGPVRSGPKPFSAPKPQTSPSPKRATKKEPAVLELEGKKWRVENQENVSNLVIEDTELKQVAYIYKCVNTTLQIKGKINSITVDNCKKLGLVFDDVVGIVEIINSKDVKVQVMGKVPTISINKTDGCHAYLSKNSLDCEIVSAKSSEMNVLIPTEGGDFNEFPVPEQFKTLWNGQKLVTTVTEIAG
UniProt O43683: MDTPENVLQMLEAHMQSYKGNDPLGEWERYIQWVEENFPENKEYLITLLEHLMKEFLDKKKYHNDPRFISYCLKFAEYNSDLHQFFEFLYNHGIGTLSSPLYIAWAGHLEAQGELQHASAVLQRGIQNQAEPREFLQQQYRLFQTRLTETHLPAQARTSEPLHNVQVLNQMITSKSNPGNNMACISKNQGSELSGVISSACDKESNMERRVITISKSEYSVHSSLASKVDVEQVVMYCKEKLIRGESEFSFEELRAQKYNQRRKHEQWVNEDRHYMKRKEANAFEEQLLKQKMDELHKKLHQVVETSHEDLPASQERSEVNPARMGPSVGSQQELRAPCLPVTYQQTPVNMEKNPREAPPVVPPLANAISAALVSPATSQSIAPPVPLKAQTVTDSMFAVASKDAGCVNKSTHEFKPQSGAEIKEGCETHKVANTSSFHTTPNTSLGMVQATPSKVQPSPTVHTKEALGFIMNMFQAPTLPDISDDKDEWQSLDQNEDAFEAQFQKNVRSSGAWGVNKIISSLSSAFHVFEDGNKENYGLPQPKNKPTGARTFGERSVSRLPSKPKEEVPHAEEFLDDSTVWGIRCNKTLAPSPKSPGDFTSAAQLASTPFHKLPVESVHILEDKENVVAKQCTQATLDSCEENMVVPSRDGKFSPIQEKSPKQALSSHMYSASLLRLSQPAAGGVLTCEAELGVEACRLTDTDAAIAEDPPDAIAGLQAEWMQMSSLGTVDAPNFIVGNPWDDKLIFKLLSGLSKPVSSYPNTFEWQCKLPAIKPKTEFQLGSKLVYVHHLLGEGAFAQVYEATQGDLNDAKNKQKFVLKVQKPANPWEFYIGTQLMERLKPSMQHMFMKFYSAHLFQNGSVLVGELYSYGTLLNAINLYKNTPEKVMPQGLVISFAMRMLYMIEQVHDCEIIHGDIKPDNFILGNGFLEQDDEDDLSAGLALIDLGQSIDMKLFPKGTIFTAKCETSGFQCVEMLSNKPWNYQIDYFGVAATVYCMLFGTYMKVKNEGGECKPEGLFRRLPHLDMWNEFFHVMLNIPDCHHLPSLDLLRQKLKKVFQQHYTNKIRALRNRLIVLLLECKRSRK
UniProt P04003: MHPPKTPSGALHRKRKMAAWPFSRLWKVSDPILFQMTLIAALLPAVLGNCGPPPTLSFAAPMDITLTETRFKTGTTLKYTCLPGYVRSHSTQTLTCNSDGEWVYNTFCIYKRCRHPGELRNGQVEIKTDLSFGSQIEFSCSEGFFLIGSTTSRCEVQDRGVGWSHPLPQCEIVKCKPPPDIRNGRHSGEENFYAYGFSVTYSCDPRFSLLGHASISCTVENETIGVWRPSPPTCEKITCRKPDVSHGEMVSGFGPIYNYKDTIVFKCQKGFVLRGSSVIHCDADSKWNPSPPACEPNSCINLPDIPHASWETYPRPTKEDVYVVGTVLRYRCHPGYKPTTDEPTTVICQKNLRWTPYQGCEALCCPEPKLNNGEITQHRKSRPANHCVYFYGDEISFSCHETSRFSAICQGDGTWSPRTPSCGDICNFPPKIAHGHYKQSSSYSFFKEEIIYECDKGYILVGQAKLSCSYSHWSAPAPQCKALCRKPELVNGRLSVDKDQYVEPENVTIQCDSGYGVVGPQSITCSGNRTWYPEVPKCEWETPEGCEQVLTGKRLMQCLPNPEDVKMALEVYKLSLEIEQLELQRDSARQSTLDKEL
UniProt Q49AR2: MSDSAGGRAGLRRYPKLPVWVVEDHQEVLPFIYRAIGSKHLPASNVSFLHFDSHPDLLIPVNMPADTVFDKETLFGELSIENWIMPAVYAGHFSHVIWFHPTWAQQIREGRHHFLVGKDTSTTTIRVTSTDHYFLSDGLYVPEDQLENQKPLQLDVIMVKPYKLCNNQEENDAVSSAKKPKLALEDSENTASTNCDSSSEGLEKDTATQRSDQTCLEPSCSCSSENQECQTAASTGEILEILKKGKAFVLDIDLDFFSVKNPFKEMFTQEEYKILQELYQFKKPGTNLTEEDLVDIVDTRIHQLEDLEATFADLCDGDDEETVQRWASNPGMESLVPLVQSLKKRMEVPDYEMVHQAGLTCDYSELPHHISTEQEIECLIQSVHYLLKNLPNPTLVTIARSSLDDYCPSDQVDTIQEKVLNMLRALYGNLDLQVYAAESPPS
UniProt Q9P1Z2: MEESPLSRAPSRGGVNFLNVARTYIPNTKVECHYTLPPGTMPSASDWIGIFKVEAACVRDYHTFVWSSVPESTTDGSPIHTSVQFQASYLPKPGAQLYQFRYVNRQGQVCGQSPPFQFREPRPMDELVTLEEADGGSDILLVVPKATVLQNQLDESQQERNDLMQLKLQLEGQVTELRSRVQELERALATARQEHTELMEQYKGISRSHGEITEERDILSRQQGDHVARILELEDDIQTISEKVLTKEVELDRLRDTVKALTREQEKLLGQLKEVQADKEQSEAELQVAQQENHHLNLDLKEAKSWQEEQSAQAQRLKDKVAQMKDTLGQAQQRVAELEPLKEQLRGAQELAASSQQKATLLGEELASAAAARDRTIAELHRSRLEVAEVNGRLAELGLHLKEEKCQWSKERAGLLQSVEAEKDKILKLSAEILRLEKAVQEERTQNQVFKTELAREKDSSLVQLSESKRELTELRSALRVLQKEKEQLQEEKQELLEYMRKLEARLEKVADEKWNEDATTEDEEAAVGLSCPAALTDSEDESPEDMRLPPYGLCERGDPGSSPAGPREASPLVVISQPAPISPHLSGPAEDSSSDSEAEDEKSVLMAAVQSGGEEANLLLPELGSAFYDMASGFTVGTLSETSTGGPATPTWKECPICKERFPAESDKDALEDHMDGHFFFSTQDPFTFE

Compound: c1cn2cc(-c3ccc4cn[nH]c4c3)nc(Nc3ccc(N4CCOCC4)cc3)c2n1 [entospletinib]
Experiment: log2 fold change, soluble protein after heating vs DMSO (PISA); higher = thermal stabilisation; K562 cells, 10 uM, 30 min; active = over 0.2 and 3.5 SD of the protein, either way, in both replicates (recomputed)
Outline: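 Thermal stability values are relative to control samples and come from duplicates. They are expressed as log2 fold changes. For measurement, K562 cells (2×10^6 cells/mL) received 10 μM compound for 30 min, and aliquots were heated for 3 min over 48°C-58°C, pooled, and extracted at 4°C in PBS with 0.5% NP-40. Soluble protein, the supernatant after 21,000xg for 90 min, was quantified by TMTpro 16plex LC-MS/MS with equalised channel sums.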

Target	log2 fold change
BSG (UniProt P35613)	inactive: 0.002
C6orf47 (UniProt O95873)	inactive: 0.018
BTN2A1 (UniProt Q7KYR7)	inactive: -0.161
C5orf51 (UniProt A6NDU8)	inactive: 0.011
C12orf45 (UniProt Q8N5I9)	inactive: -0.01
C1orf131 isoform 5 (UniProt Q8NDD1)	inactive: 0.048
CANX isoform 2 (UniProt P27824)	inactive: 0.018
BUD23 isoform 3 (UniProt O43709)	inactive: 0.078
CALM2 (UniProt P0DP24)	inactive: -0.032
CAMLG (UniProt P49069)	inactive: 0.017
CARD6 (UniProt Q9BX69)	inactive: -0.073
CAPZB (UniProt P47756)	inactive: 0.019
C2CD2L (UniProt O14523)	inactive: 0.061
C15orf40 (UniProt Q8WUR7)	inactive: 0.044
C8orf33 isoform 2 (UniProt Q9H7E9)	inactive: 0.096
CAP1 (UniProt Q01518)	inactive: 0.033
BUB1 (UniProt O43683)	inactive: -0.145
CA2 (UniProt P00918)	inactive: 0.041
C4BPA (UniProt P04003)	inactive: 0.049
C11orf98 (UniProt E9PRG8)	inactive: 0.065
C5orf22 (UniProt Q49AR2)	inactive: -0.022
CALCOCO1 (UniProt Q9P1Z2)	inactive: 0.074
C20orf27 isoform 2 (UniProt Q9GZN8)	inactive: 0.06

Shown in CSV form: part of the list above.
Target,log2 fold change
CARD6 (UniProt Q9BX69),inactive: -0.073
CAPZB (UniProt P47756),inactive: 0.019
